Test results: PMC9090556

Experiments:
[1] = target: OsJAZ11 (pBD-OsJAZ11, yeast two-hybrid fusion) (rice (Oryza sativa)); assay: two-hybrid; Matchmaker Gold system, Y2H Gold yeast strain; BD (pGBKT7) bait and AD (pGADT7) prey co-transformed; growth on SD/-Leu/-Trp/-His, SD/-Leu/-Trp/-His/-Ade and SD/-Leu/-Trp/-His/-Ade/X-Gal/Aureobasidin A
[2] = target: OsJAZ11-GST (rice (Oryza sativa)); assay: pull-down; in vitro GST pull-down; OsJAZ11-GST as bait, 6XHis-tagged partner as prey; recombinant proteins from E. coli; both purified

| binding [1] | binding [2] | Binder |
| --- | --- | --- |
| binds |  | OsJAZ6 (yeast two-hybrid fusion) (protein, UniProt Q84R94 1-228) MASAKSGERGSSSFAMACSLLSRYVRQNGAAAGELGLGIRGEADANKGKETMELFPQNSGFGSEAAAVKETPDAREQEKRQLTIFYGGKVLVFDDFPAEKAKDLMQMASKSSSTAQNCVLLPSSATATVADNTKVSAVPAPASALPVAQANAPKPVRPNAADLPQARKASLHRFLEKRKDRLQAKAPYQGSPSDASPVKKELQESQPWLGLGPQVAAPDLSLRQESSQ |
| binds |  | OsJAZ4 (yeast two-hybrid fusion) (protein, UniProt Q6ES51 1-416) MERDFLGAIGKDEEQRRHAEERKESDYFGAGGGAAAAAMDWSFASRAALMSFRSSSSAAAAAAREETRELAFPHFSALDGAKMQQASHVLARQKSFGAESHGIPQYAAAAAVHGAHRGQPPHVLNGARVIPASSPFNPNNPMFRVQSSPNLPNAVGAGGGAFKQPPFAMGNAVAGSTVGVYGTRDMPKAKAAQLTIFYAGSVNVFNNVSPEKAQELMFLASRGSLPSAPTTVARMPEAHVFPPAKVTVPEVSPTKPMMLQKPQLVSSPVPAISKPISVVSQATSLPRSASSSNVDSNVTKSSGPLVVPPTSLPPPAQPETLATTTAAAIMPRAVPQARKASLARFLEKRKERVTTVAPYPLAKSPLESSDTMGSANDNKSSCTDIALSSNRDESLSLGQPRTISFCEESPSTKLQI |
| binds |  | OsJAZ1 (yeast two-hybrid fusion) (protein, UniProt Q7XPM8 1-216) MDLLEKKNIKKGGEVEEEVARKGEERKEEEVVVEEKSHQQQQQQGEEELVGLSLAGGRPKVFPMSSPPPNPSQLTIFYGGSVCVYDSVPPEKAQAIMLIAAAAAAAASATKSNAAIAVKPPVMPAANATQAAVSPVLTRSLSLQSTSVATGQPQVAADPSSICKLQADLPIARRHSLQRFLEKRRDRLVSKAPYPTKSSEGMEASGMEVTAEGKAQ |
|  | binds | OsJAZ1-6XHIS (protein, UniProt Q7XPM8 1-216) MDLLEKKNIKKGGEVEEEVARKGEERKEEEVVVEEKSHQQQQQQGEEELVGLSLAGGRPKVFPMSSPPPNPSQLTIFYGGSVCVYDSVPPEKAQAIMLIAAAAAAAASATKSNAAIAVKPPVMPAANATQAAVSPVLTRSLSLQSTSVATGQPQVAADPSSICKLQADLPIARRHSLQRFLEKRRDRLVSKAPYPTKSSEGMEASGMEVTAEGKAQ |
| binds |  | OsJAZ8 (yeast two-hybrid fusion) (protein, UniProt Q69P94 1-232) MAGRATATATAAGKDRSSFAVTCSLLSQFLKEKKGGGGGLQGLGLGLRPAPAAPPAAGAGGAFRPPPTTMNLLSGLDAPAVEVEPNTAETAADELPLIKAPADQQSDESASEAAGEKAQQLTIFYGGKVVVFENFPSTKVKDLLQIVSTGDGVDKNTGTAATQSLPRPAHNSLPDLPIARRNSLHRFLEKRKGRMNANAPYQANCTAAPSKQANGDKSWLGFGQEMTIKQEI |

No constants are given. Whether binding was seen depends on the method and setting. Binding can be weak; no strength is given. Where a sequence is shown, tags or fusion partners need not be part of it.
